The supplement of paper PMC4604168 (melanoma cell lines)
Some of the results follow. Many values rest on one well or one pass, so single values are uncertain.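 The apoptosis fraction was the count of cleaved-PARP antibody-stained nuclei relative to all DNA-stained nuclei, imaged in 1,536-well plates. Screening doses were set so most cells survived, and baseline and induced cleaved-PARP levels vary greatly across cell lines.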

How the values were obtained:
Test in all cases: cleaved PARP positive nuclei fraction relative to DMSO control; melanoma cells; higher = more apoptosis
Settings in all cases: library dose: low library concentration; 72 h
501Mel = test system: 501Mel
A101D = test system: A101D
A2058 = test system: A2058
A375 = test system: A375
C32 = test system: C32
CBRC008 = test system: CBRC008 (line from a melanoma biopsy)
CBRC014 = test system: CBRC014 (line from a melanoma biopsy)
CBRC016 = test system: CBRC016 (line from a melanoma biopsy)
CBRC017 = test system: CBRC017 (line from a melanoma biopsy)
CBRC034 = test system: CBRC034 (line from a melanoma biopsy)
COLO792 = test system: COLO792
COLO800 = test system: COLO800
COLO829 = test system: COLO829
G361 = test system: G361
IPC-298 = test system: IPC-298
IST-MEL1 = test system: IST-MEL1
LB2518-MEL = test system: LB2518-MEL
LOXIMVI = test system: LOXIMVI
MEL-HO = test system: MEL-HO

Compound | cleaved PARP positive nuclei fraction (501Mel) [%] | cleaved PARP positive nuclei fraction (A101D) [%] | cleaved PARP positive nuclei fraction (A2058) [%] | cleaved PARP positive nuclei fraction (A375) [%] | cleaved PARP positive nuclei fraction (C32) [%] | cleaved PARP positive nuclei fraction (CBRC008) [%] | cleaved PARP positive nuclei fraction (CBRC014) [%] | cleaved PARP positive nuclei fraction (CBRC016) [%] | cleaved PARP positive nuclei fraction (CBRC017) [%] | cleaved PARP positive nuclei fraction (CBRC034) [%] | cleaved PARP positive nuclei fraction (COLO792) [%] | cleaved PARP positive nuclei fraction (COLO800) [%] | cleaved PARP positive nuclei fraction (COLO829) [%] | cleaved PARP positive nuclei fraction (G361) [%] | cleaved PARP positive nuclei fraction (IPC-298) [%] | cleaved PARP positive nuclei fraction (IST-MEL1) [%] | cleaved PARP positive nuclei fraction (LB2518-MEL) [%] | cleaved PARP positive nuclei fraction (LOXIMVI) [%] | cleaved PARP positive nuclei fraction (MEL-HO) [%]
CCN(CC)CCNC(=O)c1c(C)[nH]c(/C=C2\C(=O)Nc3ccc(F)cc32)c1C [sunitinib] + CNC(=O)c1cc(Oc2ccc(NC(=O)Nc3ccc(Cl)c(C(F)(F)F)c3)cc2)ccn1 [sorafenib] (first compound 0.4 µM, partner dose 0.4 µM) | 167 | 110 | 50.8 | 68.6 | 85.1 | 33.5 | 76.2 | 57 | 107 | 70.8 | 80.2 | 91.5 | 70.9 | 116 | 96 | 456 | 101 | 73.8 | 79.4
C[C@@H](N)c1ccc(C(=O)Nc2ccnc3[nH]ccc23)cc1 + Cn1cnc2c(F)c(Nc3ccc(Br)cc3Cl)c(C(=O)NOCCO)cc21 [selumetinib] (first compound 0.4 µM, partner dose 0.015 µM) | 245 | 83.9 | 171 | 232 | 111 | 105 | 91.5 | 101 | 98 | 149 | 195 | 58.5 | 178 | 126 | 91.6 | 64.4 | 190 | 45.3 | 133
CS(=O)(=O)c1ccc(C(=O)Nc2ccc(Cl)c(-c3ccccn3)c2)c(Cl)c1 [vismodegib] + CC(C)C[C@H](NC(=O)[C@H](Cc1ccccc1)NC(=O)c1cnccn1)B(O)O [Bortezomib] (first compound 1 µM, partner dose 0.001 µM) | 223 | 67.1 | 76.6 | 150 | 204 | 107 | 122 | 172 | 169 | 101 | 74.5 | 107 | 76.9 | 352 | 77.7 | 91 | 133 | 155 | 20.8
CC1(C)CCC(c2ccc(Cl)cc2)=C(CN2CCN(c3ccc(C(=O)NS(=O)(=O)c4ccc(N[C@H](CCN5CCOCC5)CSc5ccccc5)c(S(=O)(=O)C(F)(F)F)c4)cc3)CC2)C1 + Nc1ncn([C@H]2C[C@H](O)[C@@H](CO)O2)c(=O)n1 [decitabine] (first compound 0.4 µM, partner dose 0.1 µM) | 85.7 | 195 | 243 | 535 | 502 | 534 | 568 | 684 | 348 | 91.5 | 765 | 48.1 | 107 | 205 | 438 | 182 | 147 | 360 | 277
COc1ccc(C2=N[C@@H](c3ccc(Cl)cc3)[C@@H](c3ccc(Cl)cc3)N2C(=O)N2CCNC(=O)C2)c(OC(C)C)c1 [Nutlin-3] + Nc1nc(F)nc2c1ncn2[C@@H]1O[C@H](CO)[C@@H](O)[C@@H]1O [fludarabine] (first compound 0.1 µM, partner dose 0.2 µM) | 13000 | 152 | 103 | 5490 | 77.5 | 155 | 220 | 175 | 97.9 | 194 | 185 | 86.4 | 137 | 110 | 30.7 | 199 | 68.2 | 68.4 | 77.7
CCCCCCCCc1ccc(CCC(N)(CO)CO)cc1 [fingolimod] + Nc1nc(F)nc2c1ncn2[C@@H]1O[C@H](CO)[C@@H](O)[C@@H]1O [fludarabine] (first compound 2 µM, partner dose 0.2 µM) | 9090 | 105 | 141 | 1960 | 154 | 50 | 104 | 32.6 | 142 | 49.1 | 79.7 | 105 | 66.1 | 115 | 93.4 | 280 | 246 | 123 | 102
NC(=O)c1ccc(N(C(N)=O)c2c(F)cccc2F)nc1-c1ccc(F)cc1F + CN(c1ncccc1CNc1nc(Nc2ccc3c(c2)CC(=O)N3)ncc1C(F)(F)F)S(C)(=O)=O [PF562271] (first compound 0.4 µM, partner dose 0.08 µM) | 173 | 140 | 150 | 164 | 82.2 | 41.9 | 127 | 83.8 | 139 | 88.2 | 123 | 99 | 206 | 52.8 | 46.8 | 129 | 108 | 206 | 215
COc1ccc(C2=N[C@@H](c3ccc(Cl)cc3)[C@@H](c3ccc(Cl)cc3)N2C(=O)N2CCNC(=O)C2)c(OC(C)C)c1 [Nutlin-3] + Nc1ccn([C@@H]2O[C@H](CO)[C@@H](O)C2(F)F)c(=O)n1 [gemcitabine] (first compound 0.1 µM, partner dose 0.0004 µM) | 56.9 | 144 | 111 | 156 | 80.1 | 182 | 120 | 110 | 125 | 103 | 125 | 38.1 | 117 | 185 | 359 | 21.3 | 64.2 | 39.4 | 75.6
